Laboratory results as given in the supplement of paper PMC10849652.
This is one part of the list.

By UniProt entry, the sequences of proteins in these tests, tags left out. Where a name states a change or a piece, a line headed by the entry shows the natural chain unless it says otherwise.
UniProt Q5T8D3: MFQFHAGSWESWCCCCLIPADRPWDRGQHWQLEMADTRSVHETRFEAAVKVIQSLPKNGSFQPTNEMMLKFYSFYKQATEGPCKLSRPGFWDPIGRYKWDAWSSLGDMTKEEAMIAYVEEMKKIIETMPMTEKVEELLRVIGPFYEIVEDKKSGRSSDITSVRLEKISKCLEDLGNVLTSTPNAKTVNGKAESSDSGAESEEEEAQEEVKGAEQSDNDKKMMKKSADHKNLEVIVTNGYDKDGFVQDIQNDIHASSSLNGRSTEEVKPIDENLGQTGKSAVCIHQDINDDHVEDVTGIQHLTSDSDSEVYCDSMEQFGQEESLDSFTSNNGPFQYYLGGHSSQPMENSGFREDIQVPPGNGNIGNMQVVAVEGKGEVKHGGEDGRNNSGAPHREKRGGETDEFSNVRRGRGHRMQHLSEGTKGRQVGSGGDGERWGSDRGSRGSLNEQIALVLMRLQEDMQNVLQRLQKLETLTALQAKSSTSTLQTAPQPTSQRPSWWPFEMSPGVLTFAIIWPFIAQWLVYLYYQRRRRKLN
UniProt P28330: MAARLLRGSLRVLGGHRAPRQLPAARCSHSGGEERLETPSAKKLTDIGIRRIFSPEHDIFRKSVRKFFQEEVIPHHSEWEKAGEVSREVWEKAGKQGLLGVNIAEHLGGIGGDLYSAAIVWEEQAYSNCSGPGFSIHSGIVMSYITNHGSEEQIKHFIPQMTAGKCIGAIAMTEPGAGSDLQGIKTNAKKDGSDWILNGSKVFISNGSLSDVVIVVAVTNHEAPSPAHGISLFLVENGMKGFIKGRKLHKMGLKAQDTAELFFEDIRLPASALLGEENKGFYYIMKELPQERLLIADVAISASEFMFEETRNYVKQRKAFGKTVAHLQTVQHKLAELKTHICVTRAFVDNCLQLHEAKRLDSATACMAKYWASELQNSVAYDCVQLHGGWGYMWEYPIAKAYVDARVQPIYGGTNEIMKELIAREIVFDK
UniProt Q6DHV7: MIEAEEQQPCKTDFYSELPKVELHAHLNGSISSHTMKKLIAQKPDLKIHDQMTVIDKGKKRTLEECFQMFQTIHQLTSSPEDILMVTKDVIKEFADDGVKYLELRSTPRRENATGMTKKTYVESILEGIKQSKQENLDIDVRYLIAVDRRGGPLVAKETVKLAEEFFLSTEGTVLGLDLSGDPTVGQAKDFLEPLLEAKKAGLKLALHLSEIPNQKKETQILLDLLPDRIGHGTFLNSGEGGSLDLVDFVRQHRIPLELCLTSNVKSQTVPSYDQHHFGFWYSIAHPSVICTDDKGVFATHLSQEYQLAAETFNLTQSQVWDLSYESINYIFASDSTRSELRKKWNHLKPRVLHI
UniProt Q9ULC5: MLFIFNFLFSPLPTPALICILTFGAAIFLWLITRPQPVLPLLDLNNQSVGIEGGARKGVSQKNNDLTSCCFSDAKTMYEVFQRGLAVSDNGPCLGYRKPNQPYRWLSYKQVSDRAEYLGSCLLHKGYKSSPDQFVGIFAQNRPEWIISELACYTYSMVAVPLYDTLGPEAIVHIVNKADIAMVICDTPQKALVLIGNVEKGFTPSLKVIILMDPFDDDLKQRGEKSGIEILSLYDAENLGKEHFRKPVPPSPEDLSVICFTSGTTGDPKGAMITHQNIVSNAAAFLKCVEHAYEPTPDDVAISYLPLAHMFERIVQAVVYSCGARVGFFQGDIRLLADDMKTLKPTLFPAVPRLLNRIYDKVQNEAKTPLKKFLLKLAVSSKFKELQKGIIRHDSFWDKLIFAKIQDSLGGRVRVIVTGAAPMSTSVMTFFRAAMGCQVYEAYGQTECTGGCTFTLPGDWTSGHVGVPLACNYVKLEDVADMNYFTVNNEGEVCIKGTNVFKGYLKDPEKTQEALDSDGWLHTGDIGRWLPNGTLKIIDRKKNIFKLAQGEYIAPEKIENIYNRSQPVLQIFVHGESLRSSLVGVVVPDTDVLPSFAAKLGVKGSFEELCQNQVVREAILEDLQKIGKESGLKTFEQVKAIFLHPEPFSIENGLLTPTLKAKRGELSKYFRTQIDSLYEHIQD
UniProt Q9UKV3: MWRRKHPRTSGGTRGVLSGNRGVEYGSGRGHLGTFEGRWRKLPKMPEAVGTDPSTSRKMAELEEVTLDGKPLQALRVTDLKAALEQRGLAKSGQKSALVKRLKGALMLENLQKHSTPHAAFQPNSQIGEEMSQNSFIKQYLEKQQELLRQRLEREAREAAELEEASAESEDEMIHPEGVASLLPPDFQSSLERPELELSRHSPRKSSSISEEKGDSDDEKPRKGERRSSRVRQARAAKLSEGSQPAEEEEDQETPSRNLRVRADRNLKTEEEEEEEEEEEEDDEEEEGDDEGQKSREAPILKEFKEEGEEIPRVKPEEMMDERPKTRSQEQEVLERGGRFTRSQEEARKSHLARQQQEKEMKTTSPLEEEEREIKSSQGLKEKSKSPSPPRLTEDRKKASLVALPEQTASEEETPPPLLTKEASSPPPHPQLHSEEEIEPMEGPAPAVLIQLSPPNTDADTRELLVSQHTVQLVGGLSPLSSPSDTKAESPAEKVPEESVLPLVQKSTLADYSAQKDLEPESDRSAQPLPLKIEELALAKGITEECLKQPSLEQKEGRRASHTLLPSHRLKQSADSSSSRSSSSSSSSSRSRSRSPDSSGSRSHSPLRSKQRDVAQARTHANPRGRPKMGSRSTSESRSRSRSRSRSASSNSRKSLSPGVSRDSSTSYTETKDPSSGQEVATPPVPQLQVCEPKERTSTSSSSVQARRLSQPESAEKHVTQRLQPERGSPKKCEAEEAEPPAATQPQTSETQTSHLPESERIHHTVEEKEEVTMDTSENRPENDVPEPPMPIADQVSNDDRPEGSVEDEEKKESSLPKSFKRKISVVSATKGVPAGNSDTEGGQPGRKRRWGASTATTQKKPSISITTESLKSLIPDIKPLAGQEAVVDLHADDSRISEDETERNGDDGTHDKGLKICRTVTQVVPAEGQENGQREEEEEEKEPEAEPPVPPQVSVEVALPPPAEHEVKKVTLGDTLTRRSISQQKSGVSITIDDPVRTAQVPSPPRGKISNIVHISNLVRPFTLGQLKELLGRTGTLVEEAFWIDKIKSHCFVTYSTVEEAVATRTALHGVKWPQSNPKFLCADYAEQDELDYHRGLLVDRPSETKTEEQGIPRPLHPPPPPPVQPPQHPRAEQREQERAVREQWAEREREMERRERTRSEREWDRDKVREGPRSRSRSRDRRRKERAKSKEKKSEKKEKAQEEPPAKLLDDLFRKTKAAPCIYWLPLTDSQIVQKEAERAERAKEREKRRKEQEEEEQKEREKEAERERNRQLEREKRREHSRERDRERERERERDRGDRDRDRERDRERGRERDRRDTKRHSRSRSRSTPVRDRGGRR
UniProt Q86TW2: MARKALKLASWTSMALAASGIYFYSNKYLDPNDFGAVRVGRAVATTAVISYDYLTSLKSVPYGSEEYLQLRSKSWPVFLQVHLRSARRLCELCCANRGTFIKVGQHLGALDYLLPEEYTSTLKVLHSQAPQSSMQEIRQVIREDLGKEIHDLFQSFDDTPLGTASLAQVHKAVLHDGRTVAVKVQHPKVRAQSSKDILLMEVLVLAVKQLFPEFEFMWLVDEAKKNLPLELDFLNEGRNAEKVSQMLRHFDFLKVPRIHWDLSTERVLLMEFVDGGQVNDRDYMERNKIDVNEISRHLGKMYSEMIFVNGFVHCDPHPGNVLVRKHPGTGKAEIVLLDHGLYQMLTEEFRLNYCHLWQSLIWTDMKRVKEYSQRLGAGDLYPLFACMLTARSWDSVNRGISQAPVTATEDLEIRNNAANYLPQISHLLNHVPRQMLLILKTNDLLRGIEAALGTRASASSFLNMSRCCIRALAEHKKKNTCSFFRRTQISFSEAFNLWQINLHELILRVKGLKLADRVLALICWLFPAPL
UniProt O14672: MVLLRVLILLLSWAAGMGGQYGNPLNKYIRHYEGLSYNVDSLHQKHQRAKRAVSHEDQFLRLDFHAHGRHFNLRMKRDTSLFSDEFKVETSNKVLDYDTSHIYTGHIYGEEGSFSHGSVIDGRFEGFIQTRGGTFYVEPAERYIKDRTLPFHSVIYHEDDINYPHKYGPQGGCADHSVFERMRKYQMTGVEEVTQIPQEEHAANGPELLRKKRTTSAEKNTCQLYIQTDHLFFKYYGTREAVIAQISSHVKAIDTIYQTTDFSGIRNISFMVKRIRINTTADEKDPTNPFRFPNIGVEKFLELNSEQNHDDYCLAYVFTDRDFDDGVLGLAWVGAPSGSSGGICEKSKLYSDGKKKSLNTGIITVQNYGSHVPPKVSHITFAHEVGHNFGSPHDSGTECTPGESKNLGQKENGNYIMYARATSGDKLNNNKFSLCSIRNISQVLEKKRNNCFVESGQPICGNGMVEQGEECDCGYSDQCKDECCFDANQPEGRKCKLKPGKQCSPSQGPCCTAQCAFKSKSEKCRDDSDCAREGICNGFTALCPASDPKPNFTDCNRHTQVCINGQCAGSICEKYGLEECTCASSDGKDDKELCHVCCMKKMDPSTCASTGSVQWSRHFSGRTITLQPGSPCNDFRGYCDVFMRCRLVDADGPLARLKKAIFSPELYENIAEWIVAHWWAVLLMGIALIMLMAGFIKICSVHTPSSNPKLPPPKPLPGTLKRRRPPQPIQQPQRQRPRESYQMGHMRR
UniProt O15440: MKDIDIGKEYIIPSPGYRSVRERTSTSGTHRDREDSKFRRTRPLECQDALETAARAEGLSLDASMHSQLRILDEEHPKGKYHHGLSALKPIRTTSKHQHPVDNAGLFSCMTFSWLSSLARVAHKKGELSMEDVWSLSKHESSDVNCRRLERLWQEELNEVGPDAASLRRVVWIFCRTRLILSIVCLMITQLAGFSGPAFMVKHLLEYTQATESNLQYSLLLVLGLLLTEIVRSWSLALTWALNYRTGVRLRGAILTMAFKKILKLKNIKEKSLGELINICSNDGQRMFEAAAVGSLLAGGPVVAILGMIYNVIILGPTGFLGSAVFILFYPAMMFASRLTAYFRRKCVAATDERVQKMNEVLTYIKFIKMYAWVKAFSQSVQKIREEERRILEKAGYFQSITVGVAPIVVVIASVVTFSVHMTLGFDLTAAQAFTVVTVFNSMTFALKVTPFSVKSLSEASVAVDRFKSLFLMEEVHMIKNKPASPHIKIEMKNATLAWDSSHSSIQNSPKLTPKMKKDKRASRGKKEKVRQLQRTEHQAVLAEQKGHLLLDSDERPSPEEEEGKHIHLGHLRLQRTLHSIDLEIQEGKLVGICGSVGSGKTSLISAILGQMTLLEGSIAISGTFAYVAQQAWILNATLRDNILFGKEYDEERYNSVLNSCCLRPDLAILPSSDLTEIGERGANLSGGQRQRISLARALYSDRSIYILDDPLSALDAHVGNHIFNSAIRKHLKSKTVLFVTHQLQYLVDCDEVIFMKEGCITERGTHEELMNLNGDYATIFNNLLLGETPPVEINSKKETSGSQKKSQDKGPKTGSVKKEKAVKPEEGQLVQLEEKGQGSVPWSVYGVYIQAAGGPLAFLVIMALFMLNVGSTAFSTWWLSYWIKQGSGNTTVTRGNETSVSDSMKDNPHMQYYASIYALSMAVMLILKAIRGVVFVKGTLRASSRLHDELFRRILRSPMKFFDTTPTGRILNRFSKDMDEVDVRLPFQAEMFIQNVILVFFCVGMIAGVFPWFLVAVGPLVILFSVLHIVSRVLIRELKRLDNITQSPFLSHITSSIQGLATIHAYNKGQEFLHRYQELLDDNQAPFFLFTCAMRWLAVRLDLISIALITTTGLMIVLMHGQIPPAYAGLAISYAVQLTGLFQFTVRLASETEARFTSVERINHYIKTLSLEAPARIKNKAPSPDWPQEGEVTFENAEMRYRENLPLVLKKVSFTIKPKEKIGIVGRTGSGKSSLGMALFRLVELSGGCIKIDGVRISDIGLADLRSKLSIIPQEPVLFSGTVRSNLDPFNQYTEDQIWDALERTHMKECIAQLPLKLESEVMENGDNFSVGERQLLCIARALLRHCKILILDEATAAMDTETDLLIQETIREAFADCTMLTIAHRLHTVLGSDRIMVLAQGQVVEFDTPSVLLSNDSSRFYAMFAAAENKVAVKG
UniProt P61163, whole entry, looked up: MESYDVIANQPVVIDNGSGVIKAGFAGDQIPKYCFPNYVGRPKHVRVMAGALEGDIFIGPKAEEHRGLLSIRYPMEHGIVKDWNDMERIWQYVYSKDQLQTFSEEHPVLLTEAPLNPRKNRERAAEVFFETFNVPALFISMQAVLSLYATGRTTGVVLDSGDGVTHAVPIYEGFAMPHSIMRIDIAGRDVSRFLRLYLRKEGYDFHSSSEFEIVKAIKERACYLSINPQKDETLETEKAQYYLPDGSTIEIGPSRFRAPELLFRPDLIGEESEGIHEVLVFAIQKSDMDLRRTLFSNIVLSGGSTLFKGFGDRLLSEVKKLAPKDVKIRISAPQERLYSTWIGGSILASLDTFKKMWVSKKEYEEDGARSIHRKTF
UniProt P07311: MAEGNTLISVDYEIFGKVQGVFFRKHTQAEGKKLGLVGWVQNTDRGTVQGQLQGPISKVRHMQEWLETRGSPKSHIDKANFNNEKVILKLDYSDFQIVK

Key:
Experiment in all cases: log2 fold change, soluble protein after heating vs DMSO (PISA); higher = thermal stabilisation; K562 cells, 10 uM, 30 min; active = over 0.2 and 3.5 SD of the protein, either way, in both replicates (recomputed)
[1] = compound: CC1=C(C=C(C=C1)NC(=O)C2=CC(=CC=C2)C(C)(C)C#N)NC3=CC4=C(C=C3)N=CN(C4=O)C
Summary of the method: (§1)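 K562 cells at 2×10^6 cells/mL were given 10 μM compound for 30 min. Aliquots then went through 3 min of heating across 48°C-58°C, were pooled, and were extracted in PBS with 0.5% NP-40 at 4°C, and the supernatant after 21,000xg for 90 min was quantified by TMTpro 16plex LC-MS/MS with channel sums equalised. Thermal stability relative to control samples, from duplicates, is given as log2 fold change.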

[2] = compound: CC1=C(C=C(C=C1)NC(=O)C2=CC(=CC=C2)N(C)C)NC(=O)C3=CC=C(C=C3)O
Summary of the method: as §1

[3] = compound: CC1=CC=C(C=C1)SC2=C3C=C(SC3=CN=C2)C(=O)N
Summary of the method: as §1

[4] = compound: CC1=NC(=CC=C1)C2=C(N=C(N2)C(C)(C)C)C3=CC4=NC=CN=C4C=C3
Summary of the method: as §1

Nexturastat A = compound: CCCCN(Cc1ccc(C(=O)NO)cc1)C(=O)Nc1ccccc1 [Nexturastat A]
Summary of the method: as §1

vemurafenib = compound: CCCS(=O)(=O)Nc1ccc(F)c(C(=O)c2c[nH]c3ncc(-c4ccc(Cl)cc4)cc23)c1F [vemurafenib]
Summary of the method: as §1

[5] = compound: CCCS(=O)(=O)Nc1ccc(F)c(C(=O)c2c[nH]c3ncc(Cl)cc23)c1F
Summary of the method: as §1

[6] = compound: CCCc1cc(C)[nH]c(=O)c1CNC(=O)c1cc(-c2ccnc(N3CCN(C)CC3)c2)cc2c1cnn2C(C)C
Summary of the method: as §1

givinostat = compound: CCN(CC)Cc1ccc2cc(COC(=O)Nc3ccc(C(=O)NO)cc3)ccc2c1 [givinostat]
Summary of the method: as §1

barasertib = compound: CCN(CCCOc1ccc2c(Nc3cc(CC(=O)Nc4cccc(F)c4)[nH]n3)ncnc2c1)CCOP(=O)(O)O [barasertib]
Summary of the method: as §1

Measured: log2 fold change

ACBD5 (UniProt Q5T8D3)
inactive: [1] -0.085 | [2] -0.084 | [3] 0.083 | [4] 0.116 | Nexturastat A 0.132 | vemurafenib -0.082 | [5] 0.131 | [6] 0.157 | givinostat 0.363

ACSS2 isoform 2 (UniProt Q9NR19)
inactive: [1] -0.008 | [2] -0.027 | [3] -0.013 | [4] 0.008 | Nexturastat A -0.051 | vemurafenib 0 | [5] 0.018 | [6] 0.128 | givinostat -0.02 | barasertib 0.037

ACADL (UniProt P28330)
inactive: [1] 0.151

ADAL (UniProt Q6DHV7)
inactive: [1] 0.022 | [2] -0.016 | [3] -0.001 | [4] 0.018 | Nexturastat A -0.103 | vemurafenib 0.003 | [5] 0.001 | [6] -0.007 | givinostat -0.045 | barasertib 0.021

ACAT2 (UniProt Q9BWD1)
inactive: [1] -0.002 | [2] 0.039 | [3] 0.04 | [4] 0.027 | Nexturastat A -0.057 | vemurafenib -0.025 | [5] 0.04 | [6] -0.016 | givinostat -0.061 | barasertib 0.015

ABCF1 (UniProt Q8NE71)
inactive: [1] 0.012 | [2] 0.002 | [3] -0.053 | [4] -0.053 | Nexturastat A 0.182 | vemurafenib 0.028 | [5] 0.026 | [6] 0.059 | givinostat -0.05 | barasertib -0.031

ACSM3 (UniProt Q53FZ2)
inactive: [1] -0.069 | [2] -0.056 | [3] 0.019 | [4] -0.029 | Nexturastat A -0.096 | vemurafenib 0.033 | [5] 0.036 | [6] 0.018 | givinostat 0.039 | barasertib 0.103

ABCF2 isoform 2 (UniProt Q9UG63)
inactive: [1] 0.03 | [2] 0.015 | [3] -0.048 | [4] 0.04 | Nexturastat A -0.005 | vemurafenib 0 | [5] 0.003 | [6] -0.021 | givinostat -0.013 | barasertib -0.002

ACSL5 isoform 3 (UniProt Q9ULC5)
inactive: [1] 0.106 | [2] 0.061 | [3] -0.025 | [4] 0.088 | Nexturastat A -0.009 | vemurafenib 0.001 | [5] 0.083 | [6] -0.019 | givinostat -0.023 | barasertib 0.013

ABCF3 (UniProt Q9NUQ8)
inactive: [1] -0.058 | [2] -0.015 | [3] -0.021 | [4] 0.018 | Nexturastat A 0.375 | vemurafenib -0.06 | [5] -0.015 | [6] 0.152 | givinostat 0.179 | barasertib 0.014

ACAD8 (UniProt Q9UKU7)
inactive: [1] -0.008 | [2] -0.06 | [3] -0.054 | [4] -0.014 | Nexturastat A -0.037 | vemurafenib -0.01 | [5] 0.005 | [6] -0.026 | givinostat -0.028 | barasertib -0.013

ACOT7 isoform 7 (UniProt O00154)
inactive: [1] -0.008 | [2] 0.01 | [3] 0.014 | [4] -0.018 | Nexturastat A -0.063 | vemurafenib 0 | [5] 0.026 | [6] 0.017 | givinostat 0.006 | barasertib 0

ADAR isoform 4 (UniProt P55265)
inactive: [1] 0.081 | [2] -0.082 | [3] -0.059 | [4] -0.213 | Nexturastat A 0.146 | vemurafenib -0.162 | [5] -0.022 | [6] -0.245 | givinostat 0.112 | barasertib -0.107

ABCB6 (UniProt Q9NP58)
inactive: [1] 0.085 | [2] -0.084 | [3] 0.019 | [4] 0.019 | Nexturastat A 0.001 | vemurafenib 0.073 | [5] -0.022 | [6] -0.041 | givinostat -0.002 | barasertib 0.008

ACADVL isoform 3 (UniProt P49748)
inactive: [1] -0.004 | [2] 0.01 | [3] 0.024 | [4] -0.002 | Nexturastat A -0.073 | vemurafenib -0.009 | [5] 0.01 | [6] -0.002 | givinostat 0.026 | barasertib 0.006

ABHD17A isoform 2 (UniProt Q96GS6)
inactive: [1] -0.004 | [2] -0.031 | [3] 0.035 | [4] -0.068 | Nexturastat A 0.034 | vemurafenib -0.039 | [5] -0.032 | [6] -0.021 | givinostat -0.313 | barasertib 0.016

ADA (UniProt P00813)
inactive: [1] -0.016 | [2] -0.037 | [3] -0.071 | [4] -0.015 | Nexturastat A -0.053 | vemurafenib 0.034 | [5] -0.089 | [6] 0.021 | givinostat 0.031 | barasertib 0.026

ACIN1 (UniProt Q9UKV3)
inactive: [1] -0.028 | [2] 0.039 | [3] -0.015 | [4] -0.013 | Nexturastat A 0.044 | vemurafenib 0 | [5] 0.014 | [6] 0.023 | givinostat 0.105 | barasertib -0.008

ACACA isoform 4 (UniProt Q13085)
inactive: [1] -0.026 | [2] 0.007 | [3] 0.017 | [4] -0.058 | Nexturastat A 0.265 | vemurafenib 0.022 | [5] 0.035 | [6] 0.119 | givinostat 0.163 | barasertib 0.087

ACAP2 (UniProt Q15057)
inactive: [1] -0.046 | [2] 0 | [3] -0.038 | [4] 0.033 | Nexturastat A 0 | vemurafenib 0.046 | [5] 0.057 | [6] -0.04 | givinostat 0.028 | barasertib 0

ACTR1B (UniProt P42025)
inactive: [1] -0.056 | [2] -0.124 | [3] 0.001 | [4] -0.003 | Nexturastat A -0.134 | vemurafenib -0.029 | [5] -0.022 | [6] -0.009 | givinostat 0.006 | barasertib 0.031

Quoted from above (2 entries):
ACACA isoform 4 (UniProt Q13085)
inactive: [1] -0.026 | [2] 0.007 | [3] 0.017 | [4] -0.058 | Nexturastat A 0.265 | vemurafenib 0.022 | [5] 0.035 | [6] 0.119 | givinostat 0.163 | barasertib 0.087

ACAP2 (UniProt Q15057)
inactive: [1] -0.046 | [2] 0 | [3] -0.038 | [4] 0.033 | Nexturastat A 0 | vemurafenib 0.046 | [5] 0.057 | [6] -0.04 | givinostat 0.028 | barasertib 0

Next entries:

ACACB (UniProt O00763)
inactive: [1] -0.037 | [2] 0.01 | [3] 0.006 | [4] -0.065 | Nexturastat A 0.344 | vemurafenib 0.108 | [5] 0.012 | [6] 0.152 | givinostat 0.149 | barasertib 0.06

ADCK1 (UniProt Q86TW2)
inactive: [1] -0.023 | [2] 0.003 | [3] -0.008 | [4] -0.034 | Nexturastat A -0.063 | vemurafenib 0.01 | [5] -0.05 | [6] -0.078 | givinostat -0.024

ADAM10 (UniProt O14672)
inactive: [1] 0.003 | [2] -0.005 | [3] -0.009 | [4] -0.015 | Nexturastat A 0.024 | vemurafenib -0.029 | [5] -0.036 | [6] -0.067 | givinostat 0.02 | barasertib -0.043

ACTR6 (UniProt Q9GZN1)
inactive: [1] -0.022 | [2] 0.145 | [3] 0.036 | [4] 0.037 | Nexturastat A -0.091 | vemurafenib -0.02 | [5] 0.025 | [6] -0.036 | givinostat -0.025 | barasertib -0.025

ACO2 (UniProt Q99798)
inactive: [1] 0.071 | [2] -0.063 | [3] 0.012 | [4] 0.035 | Nexturastat A -0.073 | vemurafenib 0.055 | [5] 0.027 | [6] -0.003 | givinostat -0.014 | barasertib 0.037

ABCC5 (UniProt O15440)
inactive: [1] 0.107 | [2] -0.033 | [3] 0.035 | [4] -0.073 | Nexturastat A 0.007 | vemurafenib -0.183 | [5] -0.031 | [6] 0.1 | givinostat 0.028 | barasertib 0.026

ACTR1A (UniProt P61163)
inactive: [1] -0.014 | [2] -0.032 | [3] -0.013 | [4] -0.003 | Nexturastat A 0.012 | vemurafenib -0.025 | [5] -0.003 | [6] 0.002 | givinostat -0.026 | barasertib -0.032

ACYP1 (UniProt P07311)
inactive: [1] 0.004 | [2] -0.027 | [3] -0.016 | [4] 0.039 | Nexturastat A 0.007 | vemurafenib 0.017 | [5] 0.018 | [6] -0.047 | givinostat -0.011 | barasertib 0.013

ABRAXAS2 (UniProt Q15018)
inactive: [1] -0.041 | [2] 0.023 | [3] -0.004 | [4] 0.022 | Nexturastat A -0.092 | vemurafenib -0.051 | [5] -0.024 | [6] -0.055 | givinostat -0.03 | barasertib -0.016
